These results are taken from patent publication US4362870A, “Selective opioid receptor alkylating agents” (priority 1981, dated 1982).

For the assay, the system named is electrically stimulated guinea pig ileal longitudinal muscle. Format: cell-based.

SMILES strings stand for the structures. Where two headings read alike, the source gives them in different places.

As a reminder, the IC50 is the concentration that inhibits the measured activity by half. For `CN1CC[C@]23c4c5ccc(O)c4O[C@H]2[C@@H](O)C=C[C@H]3[C@H]1C5` [Morphine], where the note is “agonist IC50 after FNA (2 × 10^-8, 30 min, 20 washes) / control”, the “IC50 Ratio FNA/Control” value is recorded as 5.8. The IC50 is, setting by setting: (read-out: IC50 After FNA) 0.16 µM; (read-out: IC50 Control) 0.0277 µM.
